This note sets out measurements from US20260125440A1 (ELI LILLY AND COMPANY, priority 2019, published 2026).

The nature of the data set: peptide synthesis. As to conditions: whole synthesis, TFA salt.

Some results are limits rather than exact numbers.

With “YAibQGT-αMeF(2F)-TSDYSILLDOK(2-[2-(2-amino-ethoxy)-ethoxy]-acetyl-γE-CO—(CH2)18—CO2H)AQ-4Pal-AFIEYLLEGGPSSGEPPPE-NH2.”, the “final HPLC purity” value is more than 98.0%.
